Data published in publication PMC4915692.
No constants are given. Whether binding was seen depends on the method and setting. Binding can be weak; no strength is given.

Legend:
[1] = molecular target: TaGID2-B1 (Triticum aestivum (Chinese Spring)); assay: two-hybrid; TSK1 as prey (pGADT7), TaGID2-A1, -B1, -D1 as baits (pGBKT7); yeast AH109; growth on SD/-Leu-Trp-His-Ade with or without 100 μM GA3
[2] = molecular target: TaGID2-A1 (Triticum aestivum (Chinese Spring)); assay: as above
[3] = molecular target: TaGID2-D1 (Triticum aestivum (Chinese Spring)) (UniProt A1E0V2); assay: as above
[4] = molecular target: TaGID2-B1 (Triticum aestivum (Chinese Spring)); assay: two-hybrid; RHT-1s as preys (pGADT7), TaGID2-A1, -B1, -D1 as baits (pGBKT7); yeast AH109; growth on SD/-Leu-Trp-His-Ade (with 20 μg/mL X-α-Gal in Fig 5A) with or without 100 μM GA3
[5] = molecular target: TaGID2-A1 (Triticum aestivum (Chinese Spring)); assay: as above
[6] = molecular target: TaGID2-D1 (Triticum aestivum (Chinese Spring)) (UniProt A1E0V2); assay: as above

Measured: binding

TSK1 (from UniProt A0A173FEH2 1-175)
binds: [1] | [2] | [3]

B1: RHT-D1a (protein, UniProt Q9ST59 1-623)
chain: MKREYQDAGGSGGGGGGMGSSEDKMMVSAAAGEGEEVDELLAALGYKVRASDMADVAQKLEQLEMAMGMGGVGAGAAPDDSFATHLATDTVHYNPTDLSSWVESMLSELNAPPPPLPPAPQLNASTSSTVTGSGGYFDLPPSVDSSSSIYALRPIPSPAGATAPADLSADSVRDPKRMRTGGSSTSSSSSSSSSLGGGARSSVVEAAPPVAAAANATPALPVVVVDTQEAGIRLVHALLACAEAVQQENLSAAEALVKQIPLLAASQGGAMRKVAAYFGEALARRVFRFRPQPDSSLLDAAFADLLHAHFYESCPYLKFAHFTANQAILEAFAGCRRVHVVDFGIKQGMQWPALLQALALRPGGPPSFRLTGVGPPQPDETDALQQVGWKLAQFAHTIRVDFQYRGLVAATLADLEPFMLQPEGEEDPNEEPEVIAVNSVFEMHRLLAQPGALEKVLGTVRAVRPRIVTVVEQEANHNSGTFLDRFTESLHYYSTMFDSLEGGSSGGGPSEVSSGAAAAPAAAGTDQVMSEVYLGRQICNVVACEGAERTERHETLGQWRNRLGNAGFETVHLGSNAYKQASTLLALFAGGDGYKVEEKEGCLTLGWHTRPLIATSAWRLAGP
binds: [4] | [5] | [6]
